PubChem BioAssay AID1259308 | NCATS – 2017

Aim: 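Knock-downs that increase output of a recombinant reporter protein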 (primary screen)
Cells: human HEK293 embryonic kidney cells stably expressing firefly luciferase (HEK-CMV-Luc2-Hygro)
Reagent: single siRNA against human genes, 0.8 pmol siRNA per well
Duration: 72 h
Measurement: 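Reporter luminescence and viable-cell signal on separate replicate plates, given as percent of non-targeting control and median/MAD z-scores, plus per-cell luciferase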
Reading the numbers: total luciferase, z-score: higher = more reporter protein produced
Hit rule: 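Active when the median/MAD z-score for overall luciferase is greater than 3; a gene was taken forward for validation with new siRNAs if at least two of its three siRNAs passed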
Meaning of the calls: active = raised luciferase; inactive = no rise
The whole screen tested about 59,000 reagents; shown is a random part of them. About 1,510 of all reagents (2.6%) count as active. 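Calls use total luciferase alone and ignore viability, so some active siRNAs may act by altering cell number.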 Reagents against one gene are numbered here. Not all columns of the deposit are shown. No sequences are given here.

B3GALT6 #1
- total luciferase, z-score: -0.645
- Call: inactive

B3GALT6 #2
- total luciferase, z-score: 0.541
- Call: inactive

B3GALT6 #3
- total luciferase, z-score: 1.16
- Call: inactive

MAFF #1
- total luciferase, z-score: -0.652
- Call: inactive

MAFF #2
- total luciferase, z-score: -0.856
- Call: inactive

MAFF #3
- total luciferase, z-score: 0.185
- Call: inactive

Next part (2 carried over from the part before).
MAFF #2
- total luciferase, z-score: -0.856
- Call: inactive

MAFF #3
- total luciferase, z-score: 0.185
- Call: inactive

FGFR4 #1
- total luciferase, z-score: -1.44
- Call: inactive

FGFR4 #2
- total luciferase, z-score: -1.14
- Call: inactive

FGFR4 #3
- total luciferase, z-score: -0.346
- Call: inactive

TRIAP1 #1
- total luciferase, z-score: -0.0726
- Call: inactive

TRIAP1 #2
- total luciferase, z-score: -0.404
- Call: inactive

TRIAP1 #3
- total luciferase, z-score: -2.24
- Call: inactive
